Reference: PubChem BioAssay AID1259405 (NCATS, 2018)
In all, the deposit lists about 50,000 reagents; below is a part drawn at random. Over the whole deposit, about 4,000 (8%) are marked active. 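Mouse siRNA library applied to hamster cells; one well for each siRNA.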 The numbers tell different reagents against one gene apart.

- Screen: 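Knock-downs that lift recombinant protein yield in hamster ovary cells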 (primary screen)
- System: Chinese hamster CHO-K1 ovary cells with stable secreted eGFP expression
- Reagent: single siRNA against mouse genes, 0.8 pmol siRNA per well (2 µl of 400 nM stock)
- Time to read-out: 3 days
- Read-out: 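Percent of the per-plate non-targeting control median for intracellular GFP per well by laser scanning cytometry and for cell viability by ATP luminescence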
- Scale: GFP, % of control: higher = more GFP per well, higher productivity; viability (ATP), % of control: higher = more viable cells (more ATP)
- Call rule: 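Called active when intracellular GFP, relative to negative control, is at or above 120%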

| gene knocked down | reagent | GFP, % of control | viability (ATP), % of control | Outcome |
| --- | --- | --- | --- | --- |
| 4933414I15Rik | 1 | 90.1 | 86.2 | inactive |
| 4933414I15Rik | 2 | 140 | 98.2 | active |
| 4933414I15Rik | 3 | 122 | 117 | active |
| Prph | 1 | 112 | 93.2 | inactive |
| Prph | 2 | 57 | 59.3 | inactive |
| Lmx1b | 1 | 96 | 88.5 | inactive |
| Lmx1b | 2 | 69.6 | 82.5 | inactive |
| Lmx1b | 3 | 89.3 | 95.7 | inactive |
| Pcdhac1 | 1 | 68.8 | 63.8 | inactive |
| Pcdhac1 | 2 | 86.8 | 83.5 | inactive |
| Pcdhac1 | 3 | 76.6 | 58.4 | inactive |
| Prph2 | 1 | 95.7 | 103 | inactive |
| Prph2 | 2 | 74.2 | 45.3 | inactive |
| Prph2 | 3 | 82.2 | 74.8 | inactive |
| Pnpla6 | 1 | 85.1 | 70.6 | inactive |
| Pnpla6 | 2 | 182 | 160 | active |
| Pnpla6 | 3 | 50.3 | 56.7 | inactive |
| Rnf103 | 1 | 70.3 | 76.7 | inactive |
| Rnf103 | 2 | 73.6 | 66.3 | inactive |
| Rnf103 | 3 | 82 | 87.6 | inactive |
| Or2v1 | 1 | 121 | 81.9 | active |
| Or2v1 | 2 | 57.2 | 59.1 | inactive |
| Or2v1 | 3 | 42.7 | 63.6 | inactive |
| Ncaph | 1 | 105 | 130 | inactive |
| Ncaph | 2 | 79.6 | 75 | inactive |
| Ncaph | 3 | 123 | 141 | active |
| Tpm1 | 1 | 29 | 53.5 | inactive |
| Tpm1 | 2 | 55.1 | 71.1 | inactive |
| Tpm1 | 3 | 92 | 30.3 | inactive |
| Pde1a | 1 | 132 | 87.5 | active |
| Pde1a | 2 | 71.2 | 80.6 | inactive |
| Pde1a | 3 | 98.3 | 102 | inactive |
| Tcf23 | 1 | 104 | 80.6 | inactive |
| Tcf23 | 2 | 74.2 | 70.4 | inactive |
| Tcf23 | 3 | 37.9 | 63.8 | inactive |
| Proc | 1 | 63.1 | 72.1 | inactive |
| Proc | 2 | 75.2 | 44.5 | inactive |
| Proc | 3 | 70.4 | 48.8 | inactive |
| Slc36a1 | 1 | 96.8 | 55.6 | inactive |
| Slc36a1 | 2 | 55.9 | 70.3 | inactive |
| Slc36a1 | 3 | 68.5 | 77.9 | inactive |
| Nnat | 1 | 71.4 | 74.9 | inactive |
| Nnat | 2 | 108 | 84.6 | inactive |
| Nnat | 3 | 67.2 | 68.8 | inactive |
| Rab28 | 1 | 100 | 50.6 | inactive |
| Rab28 | 2 | 51.5 | 56.7 | inactive |
| Rab28 | 3 | 58.4 | 54.9 | inactive |
| Ercc2 | 1 | 81.3 | 102 | inactive |
| Ercc2 | 2 | 63.9 | 63.6 | inactive |
| Ercc2 | 3 | 92.4 | 94.3 | inactive |
| Myo5b | 1 | 91.6 | 82.6 | inactive |
| Myo5b | 2 | 95.5 | 101 | inactive |
| Igsf9 | 1 | 79 | 109 | inactive |
| Igsf9 | 2 | 93.2 | 79.6 | inactive |
| Igsf9 | 3 | 81.1 | 73.8 | inactive |
| Oog1 | 1 | 70.4 | 67.2 | inactive |
| Oog1 | 2 | 51.5 | 64.2 | inactive |
| Oog1 | 3 | 81.6 | 58.1 | inactive |
| Vmn1r201 | 1 | 60.6 | 48 | inactive |
| Vmn1r201 | 2 | 70.3 | 93.5 | inactive |
| Vmn1r201 | 3 | 83.5 | 98.8 | inactive |
| Gm5084 | 1 | 70.6 | 69.4 | inactive |
| Gm5084 | 2 | 28 | 43.5 | inactive |
| Gm5084 | 3 | 58.7 | 85.7 | inactive |
| Zfp474 | 1 | 106 | 62.9 | inactive |
| Zfp474 | 2 | 123 | 90.1 | active |
| Zfp474 | 3 | 156 | 147 | active |
| Slc23a2 | 1 | 71.2 | 86.1 | inactive |
| Slc23a2 | 2 | 64.1 | 84.9 | inactive |
| Slc23a2 | 3 | 60.4 | 90.3 | inactive |
| Nf1 | 1 | 125 | 83.6 | active |
| Nf1 | 2 | 88.9 | 99.3 | inactive |
| Nf1 | 3 | 29.8 | 42.2 | inactive |
| Fam20c | 1 | 80.7 | 79.4 | inactive |
| Fam20c | 2 | 67.1 | 56.7 | inactive |
| Fam20c | 3 | 117 | 124 | inactive |
| Slc11a1 | 1 | 90.9 | 74.4 | inactive |
| Slc11a1 | 2 | 36.8 | 39.4 | inactive |
| Slc11a1 | 3 | 76.7 | 65.6 | inactive |
| P2ry10b | 1 | 114 | 49.4 | inactive |
| P2ry10b | 2 | 86.6 | 82.7 | inactive |
| P2ry10b | 3 | 83 | 95.1 | inactive |
| Ehd1 | 1 | 105 | 118 | inactive |
| Ehd1 | 2 | 25.7 | 32 | inactive |
| Ehd1 | 3 | 77.9 | 65.1 | inactive |

10 successive entries already listed, for reference:
| gene knocked down | reagent | GFP, % of control | viability (ATP), % of control | Outcome |
| --- | --- | --- | --- | --- |
| 4933414I15Rik | 3 | 122 | 117 | active |
| Prph | 1 | 112 | 93.2 | inactive |
| Prph | 2 | 57 | 59.3 | inactive |
| Lmx1b | 1 | 96 | 88.5 | inactive |
| Lmx1b | 2 | 69.6 | 82.5 | inactive |
| Lmx1b | 3 | 89.3 | 95.7 | inactive |
| Pcdhac1 | 1 | 68.8 | 63.8 | inactive |
| Pcdhac1 | 2 | 86.8 | 83.5 | inactive |
| Pcdhac1 | 3 | 76.6 | 58.4 | inactive |
| Prph2 | 1 | 95.7 | 103 | inactive |
